Test results from a compilation of properties of binary mixtures (doi:10.1016/0040-6031(92)80207-d).
Some of these densities may be calculated back from excess volumes.

Experiment: xn = mol fraction of the nth substance listed
Details: 101.3 kPa, x2 = 0.6576

## O=C([O-])C(F)(F)F.[Na+] + CCCCNC(N)=O
303.3 K
  mass density: 1213.4 kg/m3
306.4 K
  mass density: 1210.4 kg/m3
311.5 K
  mass density: 1205.6 kg/m3
314.3 K
  mass density: 1203.1 kg/m3
319.4 K
  mass density: 1198.7 kg/m3
322.5 K
  mass density: 1196.2 kg/m3
